This is one part of the list.

Amino acid sequences for entries named in this document (tags omitted). A change or cut given only in a name is not applied to a line headed by its entry.
UniProt Q6PJW8: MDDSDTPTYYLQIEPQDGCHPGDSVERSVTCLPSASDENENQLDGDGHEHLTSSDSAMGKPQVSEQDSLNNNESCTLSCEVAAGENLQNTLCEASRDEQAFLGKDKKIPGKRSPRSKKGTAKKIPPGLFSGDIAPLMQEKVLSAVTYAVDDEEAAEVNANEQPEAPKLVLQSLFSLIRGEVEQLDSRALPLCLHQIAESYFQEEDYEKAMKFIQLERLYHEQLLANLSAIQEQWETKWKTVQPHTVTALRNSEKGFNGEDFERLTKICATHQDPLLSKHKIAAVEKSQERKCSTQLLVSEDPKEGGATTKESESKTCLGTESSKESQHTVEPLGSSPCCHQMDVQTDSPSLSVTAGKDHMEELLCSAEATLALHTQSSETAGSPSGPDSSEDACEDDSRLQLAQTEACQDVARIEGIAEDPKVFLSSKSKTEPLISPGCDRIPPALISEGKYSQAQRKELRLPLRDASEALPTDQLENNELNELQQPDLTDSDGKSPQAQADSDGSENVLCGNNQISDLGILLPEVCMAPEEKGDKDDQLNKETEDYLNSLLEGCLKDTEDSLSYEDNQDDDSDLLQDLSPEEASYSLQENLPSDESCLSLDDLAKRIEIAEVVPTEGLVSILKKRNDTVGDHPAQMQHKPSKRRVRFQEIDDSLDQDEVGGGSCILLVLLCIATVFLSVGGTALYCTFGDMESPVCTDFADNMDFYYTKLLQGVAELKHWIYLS
UniProt P27797, whole entry: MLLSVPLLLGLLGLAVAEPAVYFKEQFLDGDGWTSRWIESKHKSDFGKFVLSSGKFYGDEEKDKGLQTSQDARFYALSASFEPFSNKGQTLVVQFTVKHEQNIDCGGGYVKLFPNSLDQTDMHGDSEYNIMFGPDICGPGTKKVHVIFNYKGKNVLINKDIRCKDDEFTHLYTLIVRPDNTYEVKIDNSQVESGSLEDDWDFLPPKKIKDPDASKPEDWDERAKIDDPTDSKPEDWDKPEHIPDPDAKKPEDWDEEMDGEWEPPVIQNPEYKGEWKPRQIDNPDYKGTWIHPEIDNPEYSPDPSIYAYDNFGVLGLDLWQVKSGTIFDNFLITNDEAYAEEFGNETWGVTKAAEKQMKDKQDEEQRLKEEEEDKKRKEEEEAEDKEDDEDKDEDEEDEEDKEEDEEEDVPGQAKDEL
UniProt Q9BW85: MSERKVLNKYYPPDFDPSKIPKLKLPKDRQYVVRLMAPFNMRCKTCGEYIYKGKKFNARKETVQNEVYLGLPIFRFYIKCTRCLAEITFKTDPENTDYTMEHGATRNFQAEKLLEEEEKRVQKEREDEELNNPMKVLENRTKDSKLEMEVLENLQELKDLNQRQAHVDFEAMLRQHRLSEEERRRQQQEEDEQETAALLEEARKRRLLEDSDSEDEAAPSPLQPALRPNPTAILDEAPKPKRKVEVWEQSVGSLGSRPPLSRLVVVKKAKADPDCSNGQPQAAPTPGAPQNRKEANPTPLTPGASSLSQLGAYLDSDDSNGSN
UniProt Q96EX1: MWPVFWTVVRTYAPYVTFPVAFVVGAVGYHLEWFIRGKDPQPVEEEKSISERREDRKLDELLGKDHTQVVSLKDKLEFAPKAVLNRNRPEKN
UniProt Q6P1N0: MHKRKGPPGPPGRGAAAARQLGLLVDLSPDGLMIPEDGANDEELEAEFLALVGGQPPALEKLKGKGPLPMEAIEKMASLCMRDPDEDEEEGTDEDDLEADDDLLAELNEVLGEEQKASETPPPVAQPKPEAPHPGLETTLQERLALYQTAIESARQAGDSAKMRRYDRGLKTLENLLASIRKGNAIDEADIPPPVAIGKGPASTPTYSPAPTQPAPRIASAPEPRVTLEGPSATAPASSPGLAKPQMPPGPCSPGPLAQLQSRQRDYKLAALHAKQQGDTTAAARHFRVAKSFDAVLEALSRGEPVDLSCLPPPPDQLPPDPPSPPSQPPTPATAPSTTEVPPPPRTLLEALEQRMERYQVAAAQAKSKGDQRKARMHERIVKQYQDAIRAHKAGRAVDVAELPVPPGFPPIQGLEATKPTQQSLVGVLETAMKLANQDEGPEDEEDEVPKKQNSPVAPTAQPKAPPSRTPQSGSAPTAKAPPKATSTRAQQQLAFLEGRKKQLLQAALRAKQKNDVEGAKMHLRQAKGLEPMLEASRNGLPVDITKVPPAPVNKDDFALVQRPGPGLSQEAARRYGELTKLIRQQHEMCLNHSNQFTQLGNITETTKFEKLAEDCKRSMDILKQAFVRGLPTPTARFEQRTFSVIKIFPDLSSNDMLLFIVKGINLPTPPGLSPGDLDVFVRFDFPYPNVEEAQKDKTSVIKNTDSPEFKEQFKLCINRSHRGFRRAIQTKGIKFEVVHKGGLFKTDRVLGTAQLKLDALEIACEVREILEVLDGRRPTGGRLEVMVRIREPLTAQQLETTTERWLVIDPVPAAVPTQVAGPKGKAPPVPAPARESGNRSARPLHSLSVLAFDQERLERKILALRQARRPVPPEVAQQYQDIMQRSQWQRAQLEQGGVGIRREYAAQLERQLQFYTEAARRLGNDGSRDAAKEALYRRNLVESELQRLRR
UniProt Q4G0N4: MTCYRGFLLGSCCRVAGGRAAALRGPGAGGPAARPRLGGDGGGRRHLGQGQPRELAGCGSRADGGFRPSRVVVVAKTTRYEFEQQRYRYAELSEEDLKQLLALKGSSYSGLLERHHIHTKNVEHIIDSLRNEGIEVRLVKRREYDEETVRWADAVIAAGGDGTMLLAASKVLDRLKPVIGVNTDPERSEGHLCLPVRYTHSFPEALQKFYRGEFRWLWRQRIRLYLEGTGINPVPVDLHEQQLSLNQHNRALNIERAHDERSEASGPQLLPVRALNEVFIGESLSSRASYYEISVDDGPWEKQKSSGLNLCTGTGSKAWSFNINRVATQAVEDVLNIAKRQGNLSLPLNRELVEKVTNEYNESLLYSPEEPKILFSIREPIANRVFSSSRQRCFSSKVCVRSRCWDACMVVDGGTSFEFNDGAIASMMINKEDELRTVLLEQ
UniProt Q6PK04: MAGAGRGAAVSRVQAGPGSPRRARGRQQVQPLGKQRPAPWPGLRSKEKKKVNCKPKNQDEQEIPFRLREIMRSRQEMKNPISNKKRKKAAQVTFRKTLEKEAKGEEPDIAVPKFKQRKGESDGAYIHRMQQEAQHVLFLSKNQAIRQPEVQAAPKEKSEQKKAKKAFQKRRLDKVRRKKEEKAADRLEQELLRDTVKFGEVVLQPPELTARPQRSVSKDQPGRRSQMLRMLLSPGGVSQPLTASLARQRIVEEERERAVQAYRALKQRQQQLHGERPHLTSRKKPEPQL
UniProt Q9GZY4: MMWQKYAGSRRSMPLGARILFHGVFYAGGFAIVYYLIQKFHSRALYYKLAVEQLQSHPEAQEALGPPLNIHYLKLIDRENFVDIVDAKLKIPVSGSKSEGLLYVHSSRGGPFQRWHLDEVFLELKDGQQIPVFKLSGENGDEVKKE
UniProt Q8N357: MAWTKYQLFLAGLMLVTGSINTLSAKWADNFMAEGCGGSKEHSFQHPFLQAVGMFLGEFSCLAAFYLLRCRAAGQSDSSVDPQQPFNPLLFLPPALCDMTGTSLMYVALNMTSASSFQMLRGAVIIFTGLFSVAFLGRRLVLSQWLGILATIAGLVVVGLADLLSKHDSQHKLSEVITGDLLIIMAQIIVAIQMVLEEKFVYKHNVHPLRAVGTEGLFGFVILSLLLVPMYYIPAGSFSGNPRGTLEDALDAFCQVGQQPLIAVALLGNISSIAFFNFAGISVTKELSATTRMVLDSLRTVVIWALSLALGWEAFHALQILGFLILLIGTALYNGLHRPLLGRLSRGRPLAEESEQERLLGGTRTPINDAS
UniProt Q8N0T1: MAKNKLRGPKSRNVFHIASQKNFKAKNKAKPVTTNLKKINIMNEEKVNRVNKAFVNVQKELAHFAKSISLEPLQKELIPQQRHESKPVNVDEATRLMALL
UniProt Q5T0F9: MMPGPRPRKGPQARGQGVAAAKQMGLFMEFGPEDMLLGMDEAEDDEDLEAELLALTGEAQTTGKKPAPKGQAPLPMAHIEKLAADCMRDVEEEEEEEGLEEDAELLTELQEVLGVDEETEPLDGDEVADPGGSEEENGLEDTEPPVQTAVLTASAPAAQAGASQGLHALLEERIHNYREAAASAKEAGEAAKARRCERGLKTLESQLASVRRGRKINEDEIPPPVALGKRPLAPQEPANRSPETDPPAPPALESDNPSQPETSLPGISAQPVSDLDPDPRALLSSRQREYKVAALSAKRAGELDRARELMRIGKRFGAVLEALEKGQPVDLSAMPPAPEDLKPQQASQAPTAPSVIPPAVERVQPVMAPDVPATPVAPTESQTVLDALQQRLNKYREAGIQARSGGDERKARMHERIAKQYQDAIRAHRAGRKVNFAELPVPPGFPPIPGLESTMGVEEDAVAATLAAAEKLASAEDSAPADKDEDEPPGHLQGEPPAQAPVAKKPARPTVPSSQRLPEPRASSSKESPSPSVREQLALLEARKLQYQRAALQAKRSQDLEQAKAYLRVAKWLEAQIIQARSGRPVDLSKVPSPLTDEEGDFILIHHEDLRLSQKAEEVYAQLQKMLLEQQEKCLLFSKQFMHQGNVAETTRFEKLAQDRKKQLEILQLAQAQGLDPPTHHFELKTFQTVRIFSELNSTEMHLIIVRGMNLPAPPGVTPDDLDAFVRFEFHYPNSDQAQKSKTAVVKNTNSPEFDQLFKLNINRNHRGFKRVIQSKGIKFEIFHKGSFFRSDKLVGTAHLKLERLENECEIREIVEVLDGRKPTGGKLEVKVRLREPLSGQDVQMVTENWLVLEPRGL
UniProt Q5T5Y3: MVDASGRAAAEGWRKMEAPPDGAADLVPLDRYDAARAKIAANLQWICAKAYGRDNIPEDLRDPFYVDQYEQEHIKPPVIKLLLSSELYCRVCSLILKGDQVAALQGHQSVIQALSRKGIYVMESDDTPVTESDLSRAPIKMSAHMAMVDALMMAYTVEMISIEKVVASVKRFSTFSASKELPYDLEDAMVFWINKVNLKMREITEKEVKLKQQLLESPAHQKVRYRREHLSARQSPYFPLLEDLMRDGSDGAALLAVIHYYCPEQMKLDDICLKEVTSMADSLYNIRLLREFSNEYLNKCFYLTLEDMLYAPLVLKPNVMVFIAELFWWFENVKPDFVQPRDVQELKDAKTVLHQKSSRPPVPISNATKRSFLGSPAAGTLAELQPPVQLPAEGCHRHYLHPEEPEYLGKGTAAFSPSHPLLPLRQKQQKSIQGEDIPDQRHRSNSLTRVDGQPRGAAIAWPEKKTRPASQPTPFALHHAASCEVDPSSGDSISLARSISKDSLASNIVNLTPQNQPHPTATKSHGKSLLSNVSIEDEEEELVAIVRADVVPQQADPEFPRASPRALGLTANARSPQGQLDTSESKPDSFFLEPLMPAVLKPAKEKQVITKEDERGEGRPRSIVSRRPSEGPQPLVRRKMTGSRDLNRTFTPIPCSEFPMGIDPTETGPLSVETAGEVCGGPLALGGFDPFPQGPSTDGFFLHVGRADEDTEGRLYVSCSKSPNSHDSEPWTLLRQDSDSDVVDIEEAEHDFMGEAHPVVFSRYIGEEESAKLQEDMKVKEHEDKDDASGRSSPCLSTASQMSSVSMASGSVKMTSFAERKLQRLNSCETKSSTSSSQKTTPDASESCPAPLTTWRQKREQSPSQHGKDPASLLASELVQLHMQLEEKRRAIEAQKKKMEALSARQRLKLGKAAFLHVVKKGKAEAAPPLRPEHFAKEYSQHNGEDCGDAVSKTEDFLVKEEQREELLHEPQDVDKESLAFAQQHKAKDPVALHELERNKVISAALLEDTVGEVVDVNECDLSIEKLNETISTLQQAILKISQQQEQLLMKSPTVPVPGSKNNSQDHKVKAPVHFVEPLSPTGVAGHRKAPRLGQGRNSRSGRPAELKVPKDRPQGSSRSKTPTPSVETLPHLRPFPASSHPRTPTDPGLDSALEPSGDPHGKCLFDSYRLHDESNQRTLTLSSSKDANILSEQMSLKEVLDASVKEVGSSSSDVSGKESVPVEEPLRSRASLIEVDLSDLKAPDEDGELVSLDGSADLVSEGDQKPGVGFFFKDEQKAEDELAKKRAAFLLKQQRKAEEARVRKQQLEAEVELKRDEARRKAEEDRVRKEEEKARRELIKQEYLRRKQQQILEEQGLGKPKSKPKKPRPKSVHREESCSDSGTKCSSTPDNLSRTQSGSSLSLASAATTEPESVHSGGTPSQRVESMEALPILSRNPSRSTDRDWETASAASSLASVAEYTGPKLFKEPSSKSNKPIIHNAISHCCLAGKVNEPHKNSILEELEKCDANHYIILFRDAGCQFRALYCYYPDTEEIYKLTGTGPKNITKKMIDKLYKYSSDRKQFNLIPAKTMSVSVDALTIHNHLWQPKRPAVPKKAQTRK
UniProt Q9BVC5: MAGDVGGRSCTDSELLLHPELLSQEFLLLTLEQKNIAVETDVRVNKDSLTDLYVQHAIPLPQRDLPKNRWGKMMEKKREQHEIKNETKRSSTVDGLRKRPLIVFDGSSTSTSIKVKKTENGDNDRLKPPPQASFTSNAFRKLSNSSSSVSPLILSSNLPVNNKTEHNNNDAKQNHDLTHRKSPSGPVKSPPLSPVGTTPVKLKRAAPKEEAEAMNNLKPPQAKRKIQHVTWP

Compound in this experiment: COc1ccc(Cn2ccc3cc(C)c(C(=O)NO)cc32)cc1
The experiment in a line: dose-dependent thermal stabilisation call (2D-TPP, DLPTP, 10% FDR) (binary (1 = stabilised)); higher = stabilised by the compound. The following applies: system: HL-60 intact cells; concentration range 0.04-10 µM. As for the experimental part: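 2D thermal proteome profiling in intact HL-60 cells treated with BRD-3811 (0, 0.04, 0.29, 2, 10 uM) for 90 min at 37 C, then heated 3 min at one of 12 temperatures (42-63.9 C). Soluble protein was quantified by TMT10 MS. The value is the DLPTP call of the paper: dose-dependent thermal stabilisation over all temperatures at 10% FDR (F-test of a dose-response against a flat model); one experiment, one call per tested protein.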
In the case of C1ORF71 (UniProt Q6PJW8), the “dose-dependent thermal stabilisation call” value was inactive: 0.

On to C1ORF186 (UniProt Q6ZWK4), for which the “dose-dependent thermal stabilisation call” value was inactive: 0. Take CALR (UniProt P27797): the “dose-dependent thermal stabilisation call” value is inactive: 0. CCDC94 (UniProt Q9BW85): the “dose-dependent thermal stabilisation call” value was inactive: 0. For CD47 (UniProt Q08722), the “dose-dependent thermal stabilisation call” value is inactive: 0.

Regarding C2ORF3 (UniProt P16383), the “dose-dependent thermal stabilisation call” value is inactive: 0.

Take C1ORF212 (UniProt Q96EX1): the “dose-dependent thermal stabilisation call” value was inactive: 0. As for CC2D1A (UniProt Q6P1N0), the “dose-dependent thermal stabilisation call” value is inactive: 0. The result for CAST (UniProt P20810) reads inactive: 0. Consider CALCOCO1 (UniProt Q9P1Z2), for which the “dose-dependent thermal stabilisation call” value was inactive: 0. In the case of C1ORF55 (UniProt Q6IQ49), the “dose-dependent thermal stabilisation call” value was inactive: 0. Take C6ORF115 (UniProt Q9P1F3): the “dose-dependent thermal stabilisation call” value was inactive: 0. For the target C5ORF33 (UniProt Q4G0N4), the “dose-dependent thermal stabilisation call” value is inactive: 0. In the case of CCDC12 (UniProt Q8WUD4), the “dose-dependent thermal stabilisation call” value is inactive: 0.

In the case of CCDC53 (UniProt Q9Y3C0), the “dose-dependent thermal stabilisation call” value is inactive: 0. Regarding C1ORF58 (UniProt Q5VW32), the “dose-dependent thermal stabilisation call” value is inactive: 0. As for C21ORF33 (UniProt P0DPI2), the “dose-dependent thermal stabilisation call” value is inactive: 0. On to CCDC137 (UniProt Q6PK04), for which the “dose-dependent thermal stabilisation call” value is inactive: 0. As to C7ORF44 (UniProt Q9GZY4), the “dose-dependent thermal stabilisation call” value is inactive: 0.

As to C3ORF63 (UniProt Q9UK61), the “dose-dependent thermal stabilisation call” value was inactive: 0.

As for C1ORF149 (UniProt Q9HAF1), the “dose-dependent thermal stabilisation call” value was inactive: 0. The value for CD37 (UniProt P11049) was inactive: 0; that for C2ORF18 (UniProt Q8N357) was inactive: 0. Consider CBARA1 (UniProt Q9BPX6), for which the “dose-dependent thermal stabilisation call” value was inactive: 0. As for C8ORF59 (UniProt Q8N0T1), the “dose-dependent thermal stabilisation call” value was inactive: 0. On to CCDC90B (UniProt Q9GZT6), for which the “dose-dependent thermal stabilisation call” value was inactive: 0. The value for CCDC127 (UniProt Q96BQ5) was inactive: 0; that for CC2D1B (UniProt Q5T0F9) was inactive: 0; that for C6ORF66 (UniProt Q9P032) was inactive: 0. As to CCDC88A (UniProt Q3V6T2), the “dose-dependent thermal stabilisation call” value is inactive: 0. For C19ORF66 (UniProt Q9NUL5), the “dose-dependent thermal stabilisation call” value is inactive: 0. On to CAMSAP1 (UniProt Q5T5Y3), for which the “dose-dependent thermal stabilisation call” value was inactive: 0. The value for C20ORF20 (UniProt Q9NV56) was inactive: 0; that for CA8 (UniProt P35219) was inactive: 0. Take CCDC25 (UniProt Q86WR0): the “dose-dependent thermal stabilisation call” value is inactive: 0.

C2ORF49 (UniProt Q9BVC5): the “dose-dependent thermal stabilisation call” value was inactive: 0.

The record behind these values is the supplement of paper PMC7666118.
